Data taken from publication PMC9080189.
Results are given in words; binding and its absence hold for the method and conditions named. In cells and extracts the contact can be indirect. Binding can be weak; no strength is given.

By UniProt entry, the sequences of proteins in these tests, tags left out. Where a name states a change or a piece, a line headed by the entry shows the natural chain unless it says otherwise.
UniProt P46938: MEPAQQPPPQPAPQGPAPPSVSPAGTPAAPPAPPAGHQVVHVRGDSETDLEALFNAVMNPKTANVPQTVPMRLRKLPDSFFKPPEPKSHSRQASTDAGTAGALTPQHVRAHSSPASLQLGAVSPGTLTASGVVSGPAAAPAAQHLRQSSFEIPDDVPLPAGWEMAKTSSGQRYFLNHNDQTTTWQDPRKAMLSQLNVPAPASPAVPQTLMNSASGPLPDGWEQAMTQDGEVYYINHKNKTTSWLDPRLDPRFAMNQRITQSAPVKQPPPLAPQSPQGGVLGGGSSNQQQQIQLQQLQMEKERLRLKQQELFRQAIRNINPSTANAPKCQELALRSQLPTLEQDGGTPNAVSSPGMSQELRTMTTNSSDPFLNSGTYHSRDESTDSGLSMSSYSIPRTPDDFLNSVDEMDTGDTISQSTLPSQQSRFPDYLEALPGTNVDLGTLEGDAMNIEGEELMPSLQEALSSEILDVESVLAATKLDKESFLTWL

B1: CDX2 (Caudal type homeobox 2), endogenous in trophoblast stem cells (protein, UniProt P43241 1-311)
chain: MYVSYLLDKDVSMYPSSVRHSGGLNLAPQNFVSPPQYPDYGGYHVAAAAAATANLDSAQSPGPSWPTAYGAPLREDWNGYAPGGAAAANAVAHGLNGGSPAAAMGYSSPAEYHAHHHPHHHPHHPAASPSCASGLLQTLNLGPPGPAATAAAEQLSPSGQRRNLCEWMRKPAQQSLGSQVKTRTKDKYRVVYTDHQRLELEKEFHFSRYITIRRKSELAATLGLSERQVKIWFQNRRAKERKIKKKQQQQQQQQQQQPPQPPPQPSQPQPGALRSVPEPLSPVTSLQGSVPGSVPGVLGPAGGVLNSTVTQ

Columns and labels:
[1] = target: ΔCDX2, PPQY deletion mutant of CDX2 (Δ31-58) (mouse) (UniProt P43241); experiment: co-IP; SH-SY5Y cells transfected with full-length CDX2 or ΔCDX2 along with full-length YAP, 48 h; IP with anti-FLAG antibody, blot with anti-YAP
[2] = target: FLAG-tagged ΔWW1YAP (Δ156-189) (mouse) (UniProt P46938); experiment: co-IP; lysates of TSCs transfected with FLAG-tagged full-length YAP or YAP deletion constructs; IP with anti-FLAG antibody, immunoblot with anti-CDX2 (endogenous CDX2); isotype matched antibody as negative control

| Molecule | binding [1] | binding [2] |
| --- | --- | --- |
| full-length YAP (expressed in SH-SY5Y cells) (from UniProt P46938-1 1-488) | binds | – |
| B1 | – | binds |
